Data: article PMC3541133
Results are given in words; binding and its absence hold for the method and conditions named. Binding seen in cells or lysates may run through a third protein. Here binding means that the protein was enriched with, or labelled near, the bait; the list need not be complete. Tags and fused reporters may be left off the sequences shown.

Protein sequences, listed by entry. Tags and fused reporters are not part of them.
UniProt P78362: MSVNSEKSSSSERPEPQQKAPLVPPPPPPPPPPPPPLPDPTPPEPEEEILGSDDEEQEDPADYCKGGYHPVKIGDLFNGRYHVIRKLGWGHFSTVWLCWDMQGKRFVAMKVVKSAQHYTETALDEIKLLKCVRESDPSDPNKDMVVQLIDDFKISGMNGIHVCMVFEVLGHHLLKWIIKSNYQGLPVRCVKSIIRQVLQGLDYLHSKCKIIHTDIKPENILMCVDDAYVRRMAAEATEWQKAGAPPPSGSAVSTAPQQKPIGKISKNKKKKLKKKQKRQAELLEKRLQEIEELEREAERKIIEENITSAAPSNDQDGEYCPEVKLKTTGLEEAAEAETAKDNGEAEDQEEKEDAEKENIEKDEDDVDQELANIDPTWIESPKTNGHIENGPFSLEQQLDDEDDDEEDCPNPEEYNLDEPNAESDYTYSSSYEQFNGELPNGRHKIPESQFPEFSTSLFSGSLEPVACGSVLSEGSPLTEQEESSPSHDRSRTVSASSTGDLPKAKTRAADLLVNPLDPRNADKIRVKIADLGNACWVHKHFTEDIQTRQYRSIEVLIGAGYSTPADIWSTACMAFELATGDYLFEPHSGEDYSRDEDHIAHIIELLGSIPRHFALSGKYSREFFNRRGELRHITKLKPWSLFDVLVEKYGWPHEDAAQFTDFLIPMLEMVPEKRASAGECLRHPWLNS

Biological target: T1, FLAG-HA-BLRF2 (Epstein-Barr virus) (UniProt P03197)
T1 sequence: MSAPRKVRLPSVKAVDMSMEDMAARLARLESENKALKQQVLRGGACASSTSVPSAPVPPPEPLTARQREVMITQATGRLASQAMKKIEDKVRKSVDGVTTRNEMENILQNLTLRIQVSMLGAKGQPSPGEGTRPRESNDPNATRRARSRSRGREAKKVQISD
Assay: affinity purification with mass spectrometry; tandem affinity purification (anti-FLAG M2 agarose and FLAG peptide, then anti-HA agarose and HA peptide) from the S2 fraction (cytosol removed with digitonin, NP-40 lysis) of FLAG-HA-BLRF2 P3HR1-ZHT cells induced with 4HT for 72 hours; FLAG-HA-GFP cells as background control; LC-MS/MS

With “SRPK2 (endogenous, P3HR1-ZHT cells) (from UniProt P78362 1-688) (enzyme)” the binding was “binds”.
